Results: PubChem BioAssay AID2685 (National Center for Advancing Translational Sciences (NCATS), 2010)
Some of the results follow. The main result of the screen is listed elsewhere. These columns were measured beside it and carry no call. Compounds called inactive in the main read-out are mostly missing here. Potencies come from curve fits of mixed quality, noted in brackets.

Test: qHTS Assay for Lipid Storage Modulators in Drosophila S3 Cells;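 as to cell number change: cells counted by Cell Tracker Red CMTPX staining in the red channel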
Conditions: BODIPY lipid droplet fluorescence, 18-24 h; for cell number change: measured here: cell count max response, cells fed with added oleic acid
In short: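 Drosophila S3 cells loaded with oleic acid (400 uM, as added) and compounds at several concentrations; lipid droplets imaged by 488-nm laser-scanning cytometry, 500–530 nm intensity and object ratio to cell channel. Percent activity normalized to 20 uM Triacsin C.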

[1] = measured here: lipid fluorescence (Fed channel) AC50, cells fed with added oleic acid
[2] = measured here: cell number channel AC50, cells fed with added oleic acid

Row | Structure (SMILES) | cell number change | AC50 [1] | AC50 [2]
1 | Cc1ccc(OCCCCN2CCc3ccccc3C2)c(C)c1 | -13.1% | 0.58 µM [falling, single point] | 
2 | N#C/C(=C\c1ccccc1[N+](=O)[O-])c1nc(C2CC2)cs1 | 10.2% | 29.1 µM [rising, single point] | 3.66 µM [falling, partial curve]
3 | CC(C)[C@H](NC(=O)c1ccccc1F)C(=O)Nc1ccc2c(c1)OCO2 | 2.27% |  | 
4 | COC(=O)c1sc(S(=O)(=O)N2CCN(c3ccc(OC)cc3)CC2)c(C(=O)OC)c1C | -19.6% |  | 
5 | Cc1[nH]n(-c2ccccc2)c(=O)c1-c1cccc(Cl)c1 | -17.3% | 0.206 µM [falling, full curve] | 
6 | CN(C)c1ccc(NC(=O)CCn2c(=S)oc3ccccc32)cc1 |  | 2.06 µM [rising, partial curve] | 1.3 µM [rising, full curve, poor fit]
7 | O=C(CSCc1ccccc1)N1CCN(S(=O)(=O)c2ccc(F)cc2)CC1 | -3.76% |  | 
8 | Cc1ccccc1-n1ncc2c1CC(C)(C)CC2NC(=O)CCN1Cc2ccccc2C1=O (stereo unspecified) | 24.4% | 29.1 µM [rising, single point] | 
9 | O=C(NCc1ccccn1)c1ccc(CS(=O)(=O)Cc2ccc(Cl)cc2)o1 |  | 0.259 µM [rising, partial curve, poor fit] | 
10 | Cc1nc(Oc2ccccc2)c2ccsc2n1 | -8.95% | 0.146 µM [falling, full curve, poor fit] | 
11 | CCOC(=O)c1c(C)oc2ccc(OC(=O)N3CCOCC3)cc12 | 9.17% |  | 
12 | C=CCNC(=O)c1snnc1-c1ccccc1 | 4.45% |  | 0.517 µM [rising, partial curve]
13 | Cc1ccc2nsnc2c1S(=O)(=O)N1CCN(Cc2ccc3c(c2)OCO3)CC1 |  | 2.31 µM [rising, partial curve] | 
14 | COc1ccc(CN2C(=O)NC(C)(c3ccc(C)cc3)C2=O)cc1F (stereo unspecified) | 112% | 4.11 µM [rising, single point] | 7.31 µM [rising, partial curve, poor fit]
15 | CCOC(=O)CC1OC(=O)c2cc3c(cc21)C(=O)OC3CC(=O)OCC (stereo unspecified) | -34.6% | 29.1 µM [falling, single point] | 5.17 µM [falling, partial curve, poor fit]
16 | COc1c(C)cc(Br)cc1C(=O)Nc1ccccc1N1CCN(C(=O)c2ccccc2)CC1 | 90.2% | 29.1 µM [rising, partial curve] | 
17 | COc1ccc(-c2csc(C)n2)cc1OC | 16.4% | 6.51 µM [rising, single point] | 
18 | Cc1nc(C)n(CCNS(=O)(=O)c2ccccc2)n1 | 2.52% |  | 
19 | Cn1c(CCN2CCCC2)nc2cc(NS(=O)(=O)c3ccc(Cl)cc3)ccc21 | -1.15% | 6.51 µM [rising, single point] | 
20 | O=C(C(Cl)Cl)N1CCN(Cc2ccc3c(c2)OCO3)CC1 | -2.11% | 25.9 µM [rising, single point] | 

Reformatted with each value named: two of the compounds above
O=C(NCc1ccccn1)c1ccc(CS(=O)(=O)Cc2ccc(Cl)cc2)o1
  AC50 [1]: 0.259 µM [rising, partial curve, poor fit]
Cc1nc(Oc2ccccc2)c2ccsc2n1
  cell number change: -8.95%
  AC50 [1]: 0.146 µM [falling, full curve, poor fit]

Continued.

Row | Structure (SMILES) | cell number change | AC50 [1] | AC50 [2]
21 | Cc1cccc(C)c1N(CC(=O)Nc1cc(Cl)ccc1Oc1ccccc1)S(C)(=O)=O |  |  | 6.51 µM [rising, single point]
22 | CCCOc1ccc(N2CC(C(=O)NCCc3ccc(OC)c(OC)c3)CC2=O)cc1 (stereo unspecified) | -16.3% | 23.1 µM [falling, partial curve, poor fit] | 
23 | CC1CCCC(C)N1CCCNC(=O)Cn1ncc2c3ccccc3n(C)c2c1=O (stereo unspecified) | 1.89% | 29.1 µM [rising, single point] | 
24 | COCc1cc(/C=N\NC(=O)Cc2ccc(OC)cc2)ccc1OC | 30.8% | 2.59 µM [rising, single point] | 8.2 µM [rising, partial curve]
25 | CCNC(=O)C1=C(O)c2sccc2N(C)S1(=O)=O | -49.7% |  | 
26 | Cc1cc(C)nc(NS(=O)(=O)c2ccc(N/C=C\C(=O)c3ccc(Cl)cc3)cc2)n1 | -50.8% |  | 
27 | O=C(c1ccccc1)c1ccc2n1CCC2C(=O)O (stereo unspecified) | 16% | 23.1 µM [rising, single point] | 
28 | COC(=O)C1(C)NC(c2ccccc2F)C2C(=O)N(c3ccccc3)C(=O)C21 (stereo unspecified) | 18.7% | 4.11 µM [rising, full curve, poor fit] | 
29 | CCOC(=O)C1C(=O)NC(N2CCOCC2)=NC1c1ccco1 (stereo unspecified) | -22.5% |  | 
30 | COc1ccc(C(=O)O/N=C/c2c(C(F)(F)F)nn(C)c2SCc2ccccc2Cl)cc1 | -6.24% |  | 1.46 µM [falling, partial curve]
31 | CN1CCN(NC(=O)CC(C)(C)C)CC1 | -19.1% |  | 0.517 µM [rising, single point]
32 | O=S(=O)(Nc1ccc2c(c1)nc1n2CCOC1)c1ccc(Cl)cc1 | 7.54% | 2.31 µM [rising, full curve, poor fit] | 
33 | Nc1ncnc(NNC(=O)CNC(=O)c2c(F)cccc2Cl)c1[N+](=O)[O-] | -0.679% | 0.13 µM [falling, full curve, poor fit] | 0.0651 µM [falling, full curve, poor fit]
34 | COc1c(Br)cc2c(C)c(C(=O)N3CCOCC3)oc2c1Br | 3.24% | 2.31 µM [rising, partial curve] | 
35 | Cc1cc2nc(CSc3ccc(Cl)cc3)cc(=O)n2[nH]1 | -23.4% |  | 
36 | CCOC(=O)N1CCN(C(=O)c2ccc(C)c(S(=O)(=O)Nc3ccccc3)c2)CC1 |  |  | 0.103 µM [rising, full curve, poor fit]
37 | CN(c1ccccc1C(=O)Nc1ccc(F)c(Cl)c1)S(C)(=O)=O | 89.2% | 0.13 µM [falling, full curve, poor fit] | 
38 | CN1CCN(Cc2c(O)ccc3c(-c4ccccc4)cc(=O)oc23)CC1 | -9.12% | 3.66 µM [falling, single point] | 
39 | N#C/C(=C\c1ccc(Cl)c([N+](=O)[O-])c1)c1ccccn1 | -4.81% | 4.47 µM [falling, full curve] | 
40 | CCCN(CC(=O)Nc1ccccc1OC)C(=O)CCCN1C(=O)c2ccccc2C1=O |  | 5.17 µM [rising, single point] | 
